Reference: PMC9260921, “Design and Synthesis of Carbothioamide/Carboxamide-Based Pyrazoline Analogs as Potential Anticancer Agents: Apoptosis, Molecular Docking, ADME Assay, and DNA Binding Studies” (ACS Omega, 2022)

Assays:
Format in all cases: cell-based
[1] = test system: human cervical cancer cell (HeLa); experiment: MTT cytotoxicity assay, HeLa; conditions: HFL-1 vs HeLa
Method: (§1) The American type culture collection (ATCC, USA) provided human lung cancer cell line (A549), cervical cancer cell line (HeLa), and human primary normal lung cells (HFL-1) for this investigation. In a water-jacketed cell culture incubator, all of these cell types were cultured according to conventional culture conditions at 37 °C with 5% CO2. These cells were cultured in appropriate cell culture media. A549 cells were grown in DMEM media with 2 mM glutamine, HeLa cells were grown in Eagle’s minimum essential medium (EMEM) as recommended, whereas HFL-1 cells were also grown in F-12K. Fetal bovine serum 10% (FBS) was added to the entire medium. At a rate of 8000 cells were seeded in triplicate in a single 96-well plate for the MTT technique of cell death investigation. […] After the treatment period was finished, the media was removed, and each well was gently washed three times with PBS to clear any remaining residue just before the experiment. […] A hybrid multi-mode plate reader (BioTek, USA) with a microplate reader was used to measure absorbance at 570 nm. The percentage inhibition was calculated using eq 1: [drawing 1] […]
(§2) With all of the experimental drugs, we conducted the MTT assay three times. Prism8 software (GraphPad) was used to determine the IC50 values of the various drugs, which were then expressed as a drug concentration (μM).

[2] = test system: human primary normal lung cells (HFL-1); experiment: MTT cytotoxicity assay, HFL-1; conditions: HFL1, 24 h treatment
Method: The American type culture collection (ATCC, USA) provided human lung cancer cell line (A549), cervical cancer cell line (HeLa), and human primary normal lung cells (HFL-1) for this investigation. In a water-jacketed cell culture incubator, all of these cell types were cultured according to conventional culture conditions at 37 °C with 5% CO2. These cells were cultured in appropriate cell culture media. A549 cells were grown in DMEM media with 2 mM glutamine, HeLa cells were grown in Eagle’s minimum essential medium (EMEM) as recommended, whereas HFL-1 cells were also grown in F-12K. Fetal bovine serum 10% (FBS) was added to the entire medium. At a rate of 8000 cells were seeded in triplicate in a single 96-well plate for the MTT technique of cell death investigation. […]. After the treatment period was finished, the media was removed, and each well was gently washed three times with PBS to clear any remaining residue just before the experiment. […] A hybrid multi-mode plate reader (BioTek, USA) with a microplate reader was used to measure absorbance at 570 nm. The percentage inhibition was calculated using eq 1: [drawing 1] […]
as §2

[3] = test system: human lung cancer cell (A549); experiment: MTT cytotoxicity assay, A549; conditions: HFL-1 vs A549
Method: as §1, §2

CN[C@@H]1C[C@H]2O[C@@](C)([C@@H]1OC)n1c3ccccc3c3c4c(c5c6ccccc6n2c5c31)C(=O)NC4 [STS, Staurosporine, reference compound]
Selectivity Index HeLa [1]: 1.1
IC50 [2]: 62.86 ± 0.17 µM
Selectivity Index A549 [3]: 1.0
